Article PMC2686683
Results are given in words; binding and its absence hold for the method and conditions named. Binding seen in cells or lysates may run through a third protein. Some entries that bind do so weakly or less than the wild type.

Protein sequences, listed by entry. Tags and fused reporters are not part of them. Residues count along the entry.
GST-N terminal (NH2) cortactin fragment, residues 1-333 (Q60598, residues 1-333): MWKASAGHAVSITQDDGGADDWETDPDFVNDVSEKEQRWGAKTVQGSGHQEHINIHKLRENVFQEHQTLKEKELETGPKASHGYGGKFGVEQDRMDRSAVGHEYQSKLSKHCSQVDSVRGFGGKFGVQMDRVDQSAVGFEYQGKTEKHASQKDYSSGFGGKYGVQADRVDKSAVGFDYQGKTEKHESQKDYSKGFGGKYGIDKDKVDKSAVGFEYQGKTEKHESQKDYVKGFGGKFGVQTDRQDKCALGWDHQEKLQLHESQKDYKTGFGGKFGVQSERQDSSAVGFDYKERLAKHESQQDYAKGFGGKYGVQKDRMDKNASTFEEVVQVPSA
GST-SH3 cortactin domain, residues 458-546 (Q60598, residues 458-546): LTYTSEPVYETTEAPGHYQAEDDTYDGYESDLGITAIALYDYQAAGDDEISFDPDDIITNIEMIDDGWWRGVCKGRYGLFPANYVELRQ
UniProt Q91YD9: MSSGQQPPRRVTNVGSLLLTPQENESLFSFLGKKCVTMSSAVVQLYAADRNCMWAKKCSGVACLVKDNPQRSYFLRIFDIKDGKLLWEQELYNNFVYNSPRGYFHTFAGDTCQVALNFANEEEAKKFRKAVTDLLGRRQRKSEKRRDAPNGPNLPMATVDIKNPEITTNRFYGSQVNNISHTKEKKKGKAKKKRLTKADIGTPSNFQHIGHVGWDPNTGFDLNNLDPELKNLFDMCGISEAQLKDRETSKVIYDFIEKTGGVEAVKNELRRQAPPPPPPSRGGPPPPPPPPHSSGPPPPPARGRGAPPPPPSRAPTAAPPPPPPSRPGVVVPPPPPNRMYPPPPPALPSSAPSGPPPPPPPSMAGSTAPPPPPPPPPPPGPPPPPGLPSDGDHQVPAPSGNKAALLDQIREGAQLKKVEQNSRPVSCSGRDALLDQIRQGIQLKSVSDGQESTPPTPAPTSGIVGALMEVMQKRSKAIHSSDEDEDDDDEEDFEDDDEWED
UniProt B7UM99: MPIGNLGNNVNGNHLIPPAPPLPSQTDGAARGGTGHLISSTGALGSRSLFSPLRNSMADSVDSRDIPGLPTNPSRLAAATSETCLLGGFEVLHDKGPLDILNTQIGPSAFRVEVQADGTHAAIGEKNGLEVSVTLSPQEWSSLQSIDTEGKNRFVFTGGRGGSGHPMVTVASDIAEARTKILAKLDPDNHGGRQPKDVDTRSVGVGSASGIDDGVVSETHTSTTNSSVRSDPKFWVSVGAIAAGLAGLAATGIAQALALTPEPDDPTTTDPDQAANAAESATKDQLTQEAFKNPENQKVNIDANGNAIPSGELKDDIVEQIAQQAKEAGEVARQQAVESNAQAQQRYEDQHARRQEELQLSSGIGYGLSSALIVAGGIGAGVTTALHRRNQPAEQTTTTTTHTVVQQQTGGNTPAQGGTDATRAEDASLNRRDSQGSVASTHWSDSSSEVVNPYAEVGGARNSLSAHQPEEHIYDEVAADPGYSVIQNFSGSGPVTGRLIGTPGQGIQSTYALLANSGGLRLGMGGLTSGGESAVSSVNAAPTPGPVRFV

Tests used:
[1] = target: GST-SH3 cortactin domain, residues 458-546 (UniProt Q60598); assay: pull-down; GST fusion proteins with clarified total cell lysates of MEFs; blotted with anti-Tir, stripped and reprobed with anti-N-WASP antibody; data not shown; only the target purified
[2] = target: GST-N terminal (NH2) cortactin fragment, residues 1-333 (UniProt Q60598); assay: as above
[3] = target: GST-N terminal (NH2) cortactin fragment, residues 1-333 (UniProt Q60598); assay: pull-down; GST fusion proteins on GSH-beads with membrane-enriched pellets (resuspended in lysis buffer with 0.1% Triton-X100) of EPEC-infected (3 h) and uninfected WT, N-WASP-deficient and R MEFs; washed with lysis buffer diluted 1:10 in PBS 0.05% Tween 20; blotted with anti-Tir mAb; only the target purified

Row | binding [1] | Substance | binding [2] | binding [3]
1 | binds | N-WASP, endogenous in WT mouse embryonic fibroblasts (from UniProt Q91YD9 1-501) | – | –
2 | – | Tir delivered by EPEC into infected mouse embryonic fibroblasts (fully-modified, slower-moving band) (from UniProt B7UM99 1-550) | binds | binds
